Reference: PubChem BioAssay AID686943 (Drosophila RNAi Screening Center, 2013)
Purpose: 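Fly genes whose loss alters ERK activation after insulin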 (primary screen). System: Drosophila S2R+ haemocyte-like cells expressing YFP-tagged ERK (Rolled). Reagent: long dsRNA against Drosophila genes. Conditions: insulin stimulation versus unstimulated cells; dose and duration not given. Measurement: 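Per-plate z-scores of phospho-ERK immunostaining normalised to YFP-tagged ERK, measured with and without insulin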. Direction: replicate 1, z-score of dpERK with insulin and replicate 2, z-score of dpERK with insulin: higher = more active ERK per ERK-YFP after insulin; replicate 1, z-score of dpERK under basal conditions: higher = more basal active ERK per ERK-YFP.
The screen tested about 23,000 reagents; this is a random part of those with a known target gene and a result. 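Extra replicates exist only for a retested subset of genes; insulin dose and duration not given; both raised and lowered dpERK matter.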 Reagents against one gene are numbered here. Names joined by + are all predicted targets of the reagent. Further read-outs or replicates are left out here. The record does not give: the amount of reagent, the time to read-out.

no.	Gene	reagent	replicate 1, z-score of dpERK with insulin	replicate 2, z-score of dpERK with insulin	replicate 1, z-score of dpERK under basal conditions
1	CG6231	1	0.31	-0.72	-0.29
2	ed	1	-0.02	-0.67	-0.33
3	ed	2	-0.29	-0.05	0.04
4	ed	3	-0.88	0.89	-2.67
5	ed	4	-0.1	0.48	0.25
6	Polr2J	1	-0.49	0.3	0.22
7	kmr	1	1.17	0.57	0.08
8	kmr	2	-0.74	-0.86	0.8
9	kmr	3	-0.06	-0.72	0.31
10	kmr	4	0.34	-0.73	0.03
11	Msh6	1	1.17	-0.2	-0.22
12	CG11666	1	0.2	0.44	-0.55
13	Hsp110	1	0.36	-1.2	0.06
14	CG7745	1	-2.57	-2.79	-1.47
15	CG18536	1	0.06	0.31	-0.38
16	lncRNA:CR43491	1	-0.29	-0.02	-0.01
17	azot	1	0.59	0.83	0.44
18	CG9691	1	0.08	0.78	-0.46
19	Phm	1	0.82	-0.21	-0.63
20	CycD	1	-4.06	-3.11	-3.37
21	CG10365	1	0.27	0.06	-0.41
22	CG32762	1	0.56	0.01	1.3
23	CG34129	1	-1.1	0.31	0.08
24	CG13877 + pyx	1	0.82	0.71	0.27
25	CG32773 (retired record)	1	-0.9	-1.29	-0.23
26	CG14818	1	2.95	0.36	0.32
27	CG18281	1	0.31	0.23	0.34
28	mip40	1	0.01	-0.14	0.9
29	CG14907 + Mettl4	1	0.33	-1.49	2.28
30	CG14907 + Mettl4	2	0.38	-1.47	2.3
31	fit	1	0.4	0.26	0.37
32	ChAT	1	0.31	1.26	0.17
33	ChAT	2	-0.77	-0.45	-1.56
34	ChAT	3	0.25	0.03	-0.88
35	CG8475	1	0.33	-0.32	-0.19
36	Uba5	1	0.38	0.67	1.08
37	CG32813	1	1.28	-0.12	-0.51
38	CG32588	1	0.18	0.1	-0.84
39	Prp38	1	-0.2	-0.86	0.48
